Some of these results come from one statement about several compounds together. Residues, ends and D or L forms follow the SMILES beside them.
Target: T1, MRP-14 (Homo sapiens, UniProt P06702)
T1 construct: purchased Novus Biologicals
T1 sequence (P06702 1-114): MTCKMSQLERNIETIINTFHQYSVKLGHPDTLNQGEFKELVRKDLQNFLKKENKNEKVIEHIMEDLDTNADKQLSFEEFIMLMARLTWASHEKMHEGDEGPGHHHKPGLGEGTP
Assay: SPR binding of peptides to immobilized His-tagged MRP-14
Settings: linear versus cyclic peptides
Protocol: Shortlisted MRP-14 targeting peptides (MTPs) were synthesized with a GGGS spacer and C-terminal amidation (Genscript) and their binding affinities characterized by SPR using Biacore T100 (GE Healthcare). PBST (0.05% Tween 20), pH 7.4 containing […] ethylenediaminetetraacetic acid (EDTA) was used as the running buffer. NTA sensor chips (GE Healthcare) were charged with 0.5 mM NiCl2 solution for 2 minutes at a flowrate of 10 μL/min, then 10 μg/mL His-tagged MRP-14 was bound for 2 minutes at 10 μL/min. For testing affinity to MRP-8/14, untagged MRP-8 (Novus Biologicals) was premixed in a 1:1 ratio with His-tagged MRP-14 for 3 hours in the presence of 0.1 mM CaCl2. Peptides at concentrations ranging from 6.25 μM to 100 μM diluted in running buffer were then injected at 30 μL/min for 1 minute association followed by 1 minute dissociation. Affinity was calculated by fitting a saturation binding curve to the equilibrium response vs. peptide concentration graph.
Their binding affinity to MRP-14 was then quantified using surface plasmon resonance (SPR) with an NTA sensor chip. After charging with Ni^2+, His-tagged MRP-14 was immobilized on the chip.

CSCC[C@H](NC(=O)[C@H](Cc1c[nH]cn1)NC(=O)[C@H](CC(N)=O)NC(=O)[C@@H](N)Cc1c[nH]cn1)C(=O)N[C@@H](C)C(=O)N[C@@H](CC(=O)O)C(=O)N1CCC[C@H]1C(=O)NCC(=O)NCC(=O)NCC(=O)N[C@@H](CO)C(N)=O [MTP3] (H-HNHMADPGGGS-NH2; N-terminus assumed)
difference in affinity compared with the two strongest (cyclic) binders: 2-3 factor
